# Library screen at single concentrations

The chains behind the UniProt entries cited, without tags or fusion partners.
UniProt I6X8D2, whole entry: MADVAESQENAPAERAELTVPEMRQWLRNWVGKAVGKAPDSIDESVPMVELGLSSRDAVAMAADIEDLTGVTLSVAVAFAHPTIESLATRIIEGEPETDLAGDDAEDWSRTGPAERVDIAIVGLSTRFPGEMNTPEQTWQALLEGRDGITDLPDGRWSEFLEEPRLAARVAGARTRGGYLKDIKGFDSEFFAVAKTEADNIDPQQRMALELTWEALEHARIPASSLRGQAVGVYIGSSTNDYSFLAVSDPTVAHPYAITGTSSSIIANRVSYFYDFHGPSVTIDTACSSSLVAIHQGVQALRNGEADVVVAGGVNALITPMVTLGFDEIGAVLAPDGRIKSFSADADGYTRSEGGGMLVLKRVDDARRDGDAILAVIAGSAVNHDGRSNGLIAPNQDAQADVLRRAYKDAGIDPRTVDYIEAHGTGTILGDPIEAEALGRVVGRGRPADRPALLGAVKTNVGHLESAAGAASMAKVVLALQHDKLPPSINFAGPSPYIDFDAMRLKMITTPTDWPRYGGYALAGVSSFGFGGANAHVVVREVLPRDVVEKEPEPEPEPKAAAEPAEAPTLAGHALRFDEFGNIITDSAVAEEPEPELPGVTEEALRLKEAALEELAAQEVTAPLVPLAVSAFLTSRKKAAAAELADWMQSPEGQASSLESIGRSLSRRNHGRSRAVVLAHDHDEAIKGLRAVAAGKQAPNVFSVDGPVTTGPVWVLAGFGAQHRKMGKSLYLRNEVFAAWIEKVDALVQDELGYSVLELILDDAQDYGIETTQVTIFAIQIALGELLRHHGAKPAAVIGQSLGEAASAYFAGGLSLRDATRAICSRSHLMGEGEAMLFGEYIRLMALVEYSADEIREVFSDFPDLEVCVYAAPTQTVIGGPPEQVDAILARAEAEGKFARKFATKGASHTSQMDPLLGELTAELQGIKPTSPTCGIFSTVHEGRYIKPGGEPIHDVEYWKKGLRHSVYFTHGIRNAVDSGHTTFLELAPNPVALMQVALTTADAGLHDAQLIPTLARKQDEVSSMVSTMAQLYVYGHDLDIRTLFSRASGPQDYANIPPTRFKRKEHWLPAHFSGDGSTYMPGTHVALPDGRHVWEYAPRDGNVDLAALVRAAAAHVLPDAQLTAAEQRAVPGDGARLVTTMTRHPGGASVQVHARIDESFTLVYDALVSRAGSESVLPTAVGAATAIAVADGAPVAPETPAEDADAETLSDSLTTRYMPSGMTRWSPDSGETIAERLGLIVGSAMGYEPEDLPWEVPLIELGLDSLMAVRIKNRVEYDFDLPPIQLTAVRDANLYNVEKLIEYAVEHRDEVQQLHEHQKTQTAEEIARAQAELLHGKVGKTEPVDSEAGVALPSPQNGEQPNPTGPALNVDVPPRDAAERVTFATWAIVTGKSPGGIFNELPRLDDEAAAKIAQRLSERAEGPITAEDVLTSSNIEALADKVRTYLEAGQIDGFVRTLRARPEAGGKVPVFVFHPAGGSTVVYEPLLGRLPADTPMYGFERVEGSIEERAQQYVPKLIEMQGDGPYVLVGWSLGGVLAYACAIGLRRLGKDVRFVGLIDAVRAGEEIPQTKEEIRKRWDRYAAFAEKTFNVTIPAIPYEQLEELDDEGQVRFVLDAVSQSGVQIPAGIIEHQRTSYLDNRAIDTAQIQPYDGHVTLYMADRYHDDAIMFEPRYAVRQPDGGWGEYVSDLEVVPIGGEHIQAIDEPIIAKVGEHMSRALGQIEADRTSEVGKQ

Values are the deposited “Percent Effect”, in %. How 0% and 100% were set is not recorded. Most values in the screen are low, and negative values occur. Compounds were drawn at random from those tested, without regard to their results.

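Polyketide synthase Pks13, Mycobacterium tuberculosis (UniProt I6X8D2). Enzyme assay of the thioesterase domain of polyketide synthase 13; the read-out is not stated. Tested at 30 µM. Higher reads as stronger inhibition (inferred from which compounds were picked for retests). Size under these conditions: about 67,000 compounds, about 300 of them at 50% or above in at least one test.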

structure	effect
COc1ccc(CNCC(O)c2cccc(O)c2)cc1Br (stereo unspecified)	-6.498
Cc1c(Br)cccc1NC(=O)N(C)CCO	7.859
CCS(=O)(=O)N1CC[C@]2(C[C@@H](OCC3CC3)CO2)C1	-6.7
CC(C)(C)C(=O)NCCC(=O)N1CCC(Nc2cccnn2)CC1	-19.48
CC(Cn1cccn1)NCc1csc(-c2ccsc2)n1 (stereo unspecified)	-26.36
COCc1nc(C(=O)N2CCCC(n3nc(C)nc3C)C2)cs1 (stereo unspecified)	-1.824
COC(=O)CSCc1noc(-c2ccc(Cl)cc2)n1	-2.748
Cc1ncc(C(=O)NCCOc2ccccc2F)c(C)n1	-30.31
O=C(c1cc(C2CC2)[nH]n1)N1CCCN(c2nccs2)CC1	-1.625
CCc1ccsc1C(=O)N1CCN(CC(O)CC)CC1 (stereo unspecified)	-25.13
c1cc(N2CCSCC2)ccc1CNc1cncc2nnnn12	-11.29
Cc1ccc(OCCN2CCC(c3ccnn3CCO)CC2)cc1	-17.17
COc1ccccc1N1CCC(CNCc2cccc(C#N)c2)C1 (stereo unspecified)	14.09
O=C(c1ccc2cccc(F)c2n1)N1CCN(CCn2cncn2)CC1	-17.76
CO[C@@H]1CC[C@@H](N(C)C(=O)c2cn3cc(C)ccc3n2)[C@H]1O	-0.591
CC(NC(=O)CCS(=O)(=O)C1CCCC1)c1nc(-c2ccccc2)c[nH]1 (stereo unspecified)	2.847
CN1CCN2C[C@@H](CO)[C@H](c3ccccc3)[C@H]2C1	1.922
O=C(Cc1c[nH]c2ccccc12)NCC1CCN(Cc2c[nH]cn2)C1 (stereo unspecified)	-22.26
CC(CN1CCOC1=O)NC(=O)c1cccc(Cl)c1Cl (stereo unspecified)	-7.544
CC(C)c1noc(CCCC(=O)N2CCN(Cc3ccccn3)CC2)n1	-12.73
Cc1cc(-c2nnc(SCC(=O)O)n2C(C)c2ccccc2)nn1C (stereo unspecified)	-11.66
O=C(COc1cccc(Cl)c1)N1CCOCC(O)(CN2CCCC2)C1 (stereo unspecified)	-25.71
COc1ccc([C@@H]2CN(C(=O)CS(C)(=O)=O)C[C@H]2NC(C)=O)cc1	-4.122
COCc1noc(-c2ccc(N(C)Cc3nccs3)nc2)n1	-0.3614
Cn1nc(-c2cccs2)cc1[C@H]1CN2CC[C@H]1C[C@@H]2CNS(C)(=O)=O	-27.3
CCn1cc(CN2CCCN(C(=O)CCSC)CC2)cn1	-16.14
Cc1cc(C)n(CC2CN(Cc3ccc4c(c3)OCCO4)CCO2)n1 (stereo unspecified)	-1.296
Cn1cc(C2CC(=O)NC23CCN(C(=O)C2CC=CC2)CC3)cn1 (stereo unspecified)	-42.73
Cc1ncsc1CN1C[C@H](C(=O)NCC2CC2)[C@@H]2CCO[C@@H]2C1	-19.75
O=C1OC2(CCN(C3CCCOC3)CC2)CN1CCc1ccccc1 (stereo unspecified)	-8.173
Cc1ccc(C(=O)NCCCn2cncn2)c(=O)[nH]1	4.528
N#Cc1ccc(F)c(CN2CCNC(=O)C2c2cccs2)c1 (stereo unspecified)	-26.47
CCn1cnc(NC(=O)N2CCC(c3ccc(Cl)cc3)C2)n1 (stereo unspecified)	14.21
CC(C)c1cccc(-n2cc(O)c(C(=O)O)n2)c1	-0.4773
O=C(Cc1cccc(F)c1)N1C[C@H]2CN(Cc3cccnc3)C[C@H]2C1	-18.83
COCC1CN(Cc2ccc(C)s2)Cc2nnn(C)c21 (stereo unspecified)	-18.65
Cc1ccc(OCCC(=O)NC(C)c2ccncc2)cc1 (stereo unspecified)	-8.401
Cc1cc(CN(C)C(=O)NCc2ccnc(OC3CCCC3)c2)no1	0.5459
Cc1cc(C(=O)NC(C)CC(=O)c2cccs2)n(C)n1 (stereo unspecified)	-5.147
CS(=O)(=O)N1CCCC(C(=O)Nc2cnn(Cc3ccc(Cl)cc3)c2)C1 (stereo unspecified)	1.202
CN(Cc1ccccc1Cl)C(C(=O)O)c1ccc(F)c(CO)c1 (stereo unspecified)	-33.55
CN(CCN1CCCCCC1)C(=O)c1cc(CN2CCC(O)CC2)on1	-9.265
c1nc(CNC2CCOCC2)c2n1CCCN(CC1CC1)C2	-3.537
Cc1ccc(C(=O)NC2CCN(C)CC2)cc1N(C)S(C)(=O)=O	-22.72
O=C(Cn1cc(-c2ccccc2)ncc1=O)Nc1nc(C2CC2)n[nH]1	-26.62
Cc1noc(C)c1CN1C[C@@H]2COC[C@]2(COc2ccc(C#N)cn2)C1	-16.59
O=C(Cn1ccc2c(Cl)cccc21)Nc1nc[nH]n1	-13.23
FC(F)(F)C1CCCn2c(CNCc3ccco3)nnc21 (stereo unspecified)	-25.01
Cc1cc(OCC(=O)NS(=O)(=O)c2c(C)noc2C)ccc1Cl	-5.206
O=C(NCc1ccccc1F)N1CCC(C2OCCO2)CC1	-20.23
CCC(C)NC(=O)CN1CCC2(CC1)OCCO2 (stereo unspecified)	-18.75
COCc1noc(-c2ccc(N3CCCCC3COC)nc2)n1 (stereo unspecified)	-12.97
Nc1nccnc1CC1CCCN(Cc2cccc3[nH]ccc23)C1 (stereo unspecified)	10.53
CC(C)c1nc(CN(C)C(=O)Cn2nc3ccccc3n2)no1	-23.18
Cc1nc(CCNC(=O)c2cc(C(C)C)nn2C)sc1C	-4.166
O=C(c1cccnc1)N1CCCC1c1nc(O)cc(-c2ccccn2)n1 (stereo unspecified)	-1.959
Cc1cc(F)c2c(c1)CCCN2Cc1nc2c(cnn2C)c(=O)[nH]1	-39.83
Cc1ccccc1CNc1ccccc1OCC(=O)N1CCOCC1	9.174
O=C(c1cc2ccccc2c(=O)[nH]1)N1CCN(CCO)CC1	7.415
COc1ccc(S(=O)(=O)N[C@H]2CN(C(C)=O)C[C@@H]2C2CC2)cc1C	-8.281
O=C(Nc1ccc(F)c(-n2cccc2)c1)NC1(CCO)CCOCC1	-7.222
O=C(c1cnccn1)N1CC[C@H]2[C@@H]1CCC(=O)N2c1cccnc1	-8.802
NC(=O)c1ccc(OCC(=O)N2CCCC(n3cccn3)C2)cc1 (stereo unspecified)	-22.9
CCc1noc(C)c1C(=O)N1CCCCC1Cn1cc(C)cn1 (stereo unspecified)	-31.83
c1ccc(CCN2CCCC(Cn3ccnc3)C2)cc1 (stereo unspecified)	-19.73
COc1cccc(C(O)CNC(=O)CC2CCCCC2)c1 (stereo unspecified)	-26.05
COc1cc(CCC(=O)NCC2CC2)ccc1OCC(F)(F)F	-16.46
COc1ccccc1C(O)Cn1cc(C(=O)NCC2CC2)nn1 (stereo unspecified)	-33.96
COC(=O)Nc1cccc(C(=O)N(C)Cc2cccc(O)c2)c1	5.97
OCCCc1nncn1-c1cccc(C(F)(F)F)c1	-2.351
CC(C)(C)CC(=O)NCC(=O)Nc1ccn(Cc2ccncc2)n1	-11.07
Cc1cc(NCC(=O)N(C)Cc2cccs2)c(C(N)=O)cc1F	-69.99
CCc1nonc1NC(=O)C(C)Oc1ccccc1F (stereo unspecified)	-49.41
Cc1ncc(-c2ccnc(SCCN)n2)c(-c2ccco2)n1	-2.902
CC(Oc1ccccc1C#N)C(=O)NC1CC1 (stereo unspecified)	-10.9
Cc1cnc(-c2nc(O)c3c(n2)CN(C(=O)C2CCCO2)CC3)cn1 (stereo unspecified)	4.789
CC(c1nnc(-c2cccs2)o1)N1CCn2c(nnc2C2CC2)C1 (stereo unspecified)	-0.2225
O=c1ccc(-c2cccs2)nn1CN1CCN(c2ccccn2)CC1	-10.27
Fc1cnc(N2CCC3(CC2)CN(Cc2ccccn2)CCO3)nc1	-20.96
Cc1nn(-c2ccc(C(=O)O)cc2)c2c1C(CC(C)C)SCC(=O)N2 (stereo unspecified)	-3.712
CN(Cc1ccc2c(c1)OCO2)C(=O)NCCc1cnn(C)c1	-21.06
Cc1ccc2c(c1)CCC2NC(=O)N1CCC(C(N)=O)CC1 (stereo unspecified)	-31.97
Cc1ccc(NC2CCN(C(=O)c3cscn3)CC2)nn1	-8.067
O=C1C[C@@H]2[C@H](CCN2Cc2ccccn2)N1Cc1ccncc1	-28.74
O=C(c1ccoc1)N1CCc2c(COCc3ccncc3)cncc2C1	26.26
COc1cc(NC(=O)Cn2ccc3sc(C)cc3c2=O)cc(OC)c1	-7.409
O=C(c1[nH]nc(C2CC2)c1Cl)N1CCCC1	-44.76
CCOC(=O)CNC(=O)NCc1cc(C)n(-c2ccccc2OC)c1C	50.03
Cc1ccc(C(=O)N(C)Cc2cc(Br)cs2)cn1	-1.663
COc1cccc2sc(N3CCN(C(=O)c4cc(C)on4)CC3)nc12	-5.292
Cc1cccc(N(CCC(N)=O)C(=O)c2cc(-n3cccn3)ccn2)c1	-33.48
Cc1ccn(-c2ccc(N3CCN(Cc4ccccn4)CC3)nn2)n1	-28.35

Source: ChEMBL document CHEMBL3988442, “University of Dundee, Small-Polar-MMV Screening Library” (2021).